This passage reports binding results from publication PMC11041666.

The chains behind the UniProt entries cited, without tags or fusion partners.
UniProt Q0GNC1: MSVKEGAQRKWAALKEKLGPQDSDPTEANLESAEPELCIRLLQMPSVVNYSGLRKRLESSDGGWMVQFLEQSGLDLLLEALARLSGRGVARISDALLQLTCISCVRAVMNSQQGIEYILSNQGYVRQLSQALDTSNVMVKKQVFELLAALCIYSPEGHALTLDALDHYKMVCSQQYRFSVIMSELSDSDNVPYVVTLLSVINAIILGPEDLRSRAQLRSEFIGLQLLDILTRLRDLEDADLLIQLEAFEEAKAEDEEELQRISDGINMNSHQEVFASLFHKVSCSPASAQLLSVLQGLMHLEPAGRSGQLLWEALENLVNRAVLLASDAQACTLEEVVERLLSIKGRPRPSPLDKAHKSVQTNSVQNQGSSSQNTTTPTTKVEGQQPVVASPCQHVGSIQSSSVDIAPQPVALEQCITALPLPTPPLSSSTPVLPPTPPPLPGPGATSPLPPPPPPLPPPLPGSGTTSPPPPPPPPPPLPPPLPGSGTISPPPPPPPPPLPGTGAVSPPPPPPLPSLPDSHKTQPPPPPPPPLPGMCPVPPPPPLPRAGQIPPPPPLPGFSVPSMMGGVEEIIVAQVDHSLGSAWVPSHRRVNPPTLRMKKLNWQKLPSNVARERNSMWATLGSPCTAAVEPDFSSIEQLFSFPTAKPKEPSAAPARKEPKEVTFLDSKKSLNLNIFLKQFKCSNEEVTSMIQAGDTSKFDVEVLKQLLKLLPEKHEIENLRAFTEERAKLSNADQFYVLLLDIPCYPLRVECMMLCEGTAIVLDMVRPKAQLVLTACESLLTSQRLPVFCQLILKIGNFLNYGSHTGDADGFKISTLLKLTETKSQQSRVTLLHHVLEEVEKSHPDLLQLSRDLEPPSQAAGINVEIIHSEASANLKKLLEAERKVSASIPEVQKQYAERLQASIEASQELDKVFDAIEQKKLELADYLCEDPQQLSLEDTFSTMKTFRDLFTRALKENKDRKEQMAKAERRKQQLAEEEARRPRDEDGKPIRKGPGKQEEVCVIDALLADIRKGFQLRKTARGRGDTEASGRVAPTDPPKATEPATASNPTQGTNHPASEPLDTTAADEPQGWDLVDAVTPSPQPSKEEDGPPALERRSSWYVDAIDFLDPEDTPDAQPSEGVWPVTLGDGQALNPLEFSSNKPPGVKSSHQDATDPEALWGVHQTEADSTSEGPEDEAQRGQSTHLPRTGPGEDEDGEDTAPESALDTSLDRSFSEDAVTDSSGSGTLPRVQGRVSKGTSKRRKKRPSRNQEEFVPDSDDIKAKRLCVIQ
UniProt Q01815: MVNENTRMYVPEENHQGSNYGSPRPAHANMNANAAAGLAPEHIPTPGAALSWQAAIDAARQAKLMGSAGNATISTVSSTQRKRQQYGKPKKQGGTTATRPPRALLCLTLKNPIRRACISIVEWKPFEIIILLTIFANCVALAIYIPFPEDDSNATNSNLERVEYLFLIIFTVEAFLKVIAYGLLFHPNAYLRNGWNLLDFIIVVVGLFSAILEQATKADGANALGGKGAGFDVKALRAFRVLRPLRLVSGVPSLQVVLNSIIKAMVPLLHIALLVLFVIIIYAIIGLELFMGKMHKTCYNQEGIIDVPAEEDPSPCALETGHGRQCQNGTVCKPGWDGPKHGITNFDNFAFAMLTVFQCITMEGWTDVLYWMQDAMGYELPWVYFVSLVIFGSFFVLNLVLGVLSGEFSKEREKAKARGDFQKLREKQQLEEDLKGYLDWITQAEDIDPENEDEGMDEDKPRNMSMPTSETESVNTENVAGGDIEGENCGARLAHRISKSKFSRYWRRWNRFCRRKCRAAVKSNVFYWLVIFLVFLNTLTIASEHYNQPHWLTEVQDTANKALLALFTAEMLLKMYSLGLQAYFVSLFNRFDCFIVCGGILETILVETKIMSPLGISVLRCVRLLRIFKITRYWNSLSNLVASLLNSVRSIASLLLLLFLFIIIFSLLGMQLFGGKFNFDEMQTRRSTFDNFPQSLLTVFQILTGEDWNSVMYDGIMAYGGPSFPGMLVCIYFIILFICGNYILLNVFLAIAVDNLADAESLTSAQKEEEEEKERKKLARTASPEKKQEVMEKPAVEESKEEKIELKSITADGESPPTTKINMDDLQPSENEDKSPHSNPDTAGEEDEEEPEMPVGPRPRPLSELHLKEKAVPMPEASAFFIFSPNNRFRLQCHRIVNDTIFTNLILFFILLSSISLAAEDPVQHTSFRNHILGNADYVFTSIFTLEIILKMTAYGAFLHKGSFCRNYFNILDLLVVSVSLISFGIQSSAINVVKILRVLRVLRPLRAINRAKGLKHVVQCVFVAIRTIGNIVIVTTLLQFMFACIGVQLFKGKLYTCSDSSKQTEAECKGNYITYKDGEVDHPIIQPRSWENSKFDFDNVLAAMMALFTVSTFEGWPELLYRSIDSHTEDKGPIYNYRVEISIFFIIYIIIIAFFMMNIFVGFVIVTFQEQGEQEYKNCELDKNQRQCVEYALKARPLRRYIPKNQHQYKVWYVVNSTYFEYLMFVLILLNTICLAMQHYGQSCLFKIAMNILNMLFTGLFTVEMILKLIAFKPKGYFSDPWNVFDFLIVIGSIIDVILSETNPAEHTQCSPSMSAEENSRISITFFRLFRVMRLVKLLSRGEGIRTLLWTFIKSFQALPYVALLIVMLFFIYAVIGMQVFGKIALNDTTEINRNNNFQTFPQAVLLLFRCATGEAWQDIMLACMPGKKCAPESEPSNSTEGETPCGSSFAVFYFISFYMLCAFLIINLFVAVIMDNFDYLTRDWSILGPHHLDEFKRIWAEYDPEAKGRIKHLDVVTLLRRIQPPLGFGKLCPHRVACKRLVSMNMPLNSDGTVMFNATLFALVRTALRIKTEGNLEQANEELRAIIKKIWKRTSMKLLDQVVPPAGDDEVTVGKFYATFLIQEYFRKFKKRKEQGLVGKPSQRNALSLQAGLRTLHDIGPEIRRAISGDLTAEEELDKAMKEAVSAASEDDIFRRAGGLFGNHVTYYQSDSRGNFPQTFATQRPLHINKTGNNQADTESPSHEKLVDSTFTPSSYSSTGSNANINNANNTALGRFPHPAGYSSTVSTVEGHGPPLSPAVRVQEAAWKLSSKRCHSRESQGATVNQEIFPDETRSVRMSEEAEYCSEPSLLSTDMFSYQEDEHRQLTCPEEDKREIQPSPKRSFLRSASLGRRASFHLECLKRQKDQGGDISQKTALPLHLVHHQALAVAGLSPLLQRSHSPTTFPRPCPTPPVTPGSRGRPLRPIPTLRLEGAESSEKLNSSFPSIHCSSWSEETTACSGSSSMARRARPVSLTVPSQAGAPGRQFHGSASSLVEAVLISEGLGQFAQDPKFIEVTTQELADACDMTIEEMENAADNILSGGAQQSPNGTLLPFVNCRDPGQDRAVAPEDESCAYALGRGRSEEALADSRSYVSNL

Results are given in words; binding and its absence hold for the method and conditions named. In cells and extracts the contact can be indirect. Some binding calls cover weakened binding; strength is not graded here.

In this test the target is Inf2 (mouse (endogenous in murine cardiac tissue)) (UniProt Q0GNC1). Kind of test: co-IP; IP of endogenous Inf2 (anti-Inf2, Bethyl A303-428A) from total mouse heart tissue lysate without membrane enrichment; western blot for Cacna1c. A general note: Immunoblotting shows a protein as a band on a membrane.

Turning to “Cacna1c (Cav1.2) (from UniProt Q01815 1-2139)”, the binding result is “binds”.
